Results from paper PMC4682109, “The experimental power of FR900359 to study Gq-regulated biological processes” (Nature Communications, 2015).
These are yes or no findings as the source states them, for the method shown. Binding seen in cells or lysates may run through a third protein. Some entries that bind do so weakly or less than the wild type. Where a sequence is shown, tags or fusion partners need not be part of it.

By UniProt entry, the sequences of proteins in these tests, tags left out.
UniProt P32121: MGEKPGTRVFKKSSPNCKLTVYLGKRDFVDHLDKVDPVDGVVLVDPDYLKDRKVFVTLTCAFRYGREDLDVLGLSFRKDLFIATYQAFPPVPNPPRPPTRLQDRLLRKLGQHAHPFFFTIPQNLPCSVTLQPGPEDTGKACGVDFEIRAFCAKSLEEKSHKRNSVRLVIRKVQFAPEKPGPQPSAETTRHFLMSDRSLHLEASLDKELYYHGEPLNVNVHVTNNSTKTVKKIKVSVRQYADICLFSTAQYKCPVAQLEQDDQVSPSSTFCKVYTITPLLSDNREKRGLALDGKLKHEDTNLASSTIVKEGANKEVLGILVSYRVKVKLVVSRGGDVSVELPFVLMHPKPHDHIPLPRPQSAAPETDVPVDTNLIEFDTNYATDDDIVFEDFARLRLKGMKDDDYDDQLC

Target: T1, prostaglandin D2 receptor DP2/CRTH2 fused to Renilla luciferase (UniProt Q9Y5Y4)
T1 sequence: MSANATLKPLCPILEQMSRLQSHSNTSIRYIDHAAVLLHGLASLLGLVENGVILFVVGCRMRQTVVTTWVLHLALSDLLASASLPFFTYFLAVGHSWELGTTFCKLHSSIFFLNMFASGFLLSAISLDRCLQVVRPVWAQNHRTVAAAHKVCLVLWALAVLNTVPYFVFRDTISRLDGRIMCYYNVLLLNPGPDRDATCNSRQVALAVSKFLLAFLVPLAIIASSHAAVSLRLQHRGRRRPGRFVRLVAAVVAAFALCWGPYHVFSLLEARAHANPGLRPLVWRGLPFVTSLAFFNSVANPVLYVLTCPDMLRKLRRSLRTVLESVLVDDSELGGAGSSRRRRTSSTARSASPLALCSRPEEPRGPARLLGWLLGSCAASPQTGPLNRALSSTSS
Experiment: FRET or BRET; BRET^2 in HEK293 cells stably expressing CRTH2-RLuc (donor) and GFP^2-β-arrestin2 (acceptor); agonist PGD2 5 min, HBSS with 20 mM HEPES, DeepBlueC coelenterazine 5 μM; with or without pretreatment with PTX (16-20 h) or FR (30 min)

GFP^2-β-arrestin2 (from UniProt P32121 1-409)
binding: binds
